Reference: publication PMC4504158
No constants are given. Whether binding was seen depends on the method and setting. In cells and extracts the contact can be indirect. Some entries that bind do so weakly or less than the wild type.

Protein sequences, listed by entry. Tags and fused reporters are not part of them.
UniProt Q96SN7: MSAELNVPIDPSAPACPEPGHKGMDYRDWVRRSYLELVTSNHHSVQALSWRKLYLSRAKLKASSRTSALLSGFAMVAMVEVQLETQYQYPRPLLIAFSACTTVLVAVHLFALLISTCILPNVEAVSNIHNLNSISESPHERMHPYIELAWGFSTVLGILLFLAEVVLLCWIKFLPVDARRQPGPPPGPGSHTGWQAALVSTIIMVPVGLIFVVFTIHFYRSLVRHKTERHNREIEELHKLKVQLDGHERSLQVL
UniProt Q96D31: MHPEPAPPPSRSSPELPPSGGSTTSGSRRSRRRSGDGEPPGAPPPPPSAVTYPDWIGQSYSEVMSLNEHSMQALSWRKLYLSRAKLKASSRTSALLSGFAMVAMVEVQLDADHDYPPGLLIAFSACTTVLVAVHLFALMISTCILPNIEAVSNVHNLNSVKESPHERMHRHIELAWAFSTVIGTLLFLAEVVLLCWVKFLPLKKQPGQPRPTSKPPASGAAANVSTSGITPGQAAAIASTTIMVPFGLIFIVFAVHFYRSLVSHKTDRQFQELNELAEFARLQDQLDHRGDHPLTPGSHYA
UniProt O15554: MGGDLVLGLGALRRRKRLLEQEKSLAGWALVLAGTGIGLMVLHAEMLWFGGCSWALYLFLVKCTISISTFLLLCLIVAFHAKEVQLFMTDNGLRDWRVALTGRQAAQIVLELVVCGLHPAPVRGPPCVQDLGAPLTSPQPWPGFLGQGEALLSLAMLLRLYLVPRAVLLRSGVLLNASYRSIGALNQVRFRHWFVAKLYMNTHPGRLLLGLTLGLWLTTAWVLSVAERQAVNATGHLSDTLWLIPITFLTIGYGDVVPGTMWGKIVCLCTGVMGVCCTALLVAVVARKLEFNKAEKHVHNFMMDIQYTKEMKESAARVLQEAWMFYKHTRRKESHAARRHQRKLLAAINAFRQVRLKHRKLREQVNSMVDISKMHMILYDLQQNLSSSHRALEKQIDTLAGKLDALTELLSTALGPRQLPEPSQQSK

Key:
[1] = biological target: c-Myc epitope-tagged Orai2 (UniProt Q96SN7); experiment: co-IP; lysates of co-transfected HEK293 cells (50 mM Tris pH 8.0, 150 mM NaCl, 1 % Triton X-100); immunoprecipitation with mouse anti-c-Myc 9E10 and protein G-sepharose, 16-18 h at 4 °C; blot with anti-FLAG
[2] = biological target: c-Myc epitope-tagged Orai1 (UniProt Q96D31); experiment: as above
[3] = biological target: FLAG epitope-tagged KCa3.1 (human) (UniProt O15554); experiment: co-IP; lysates of co-transfected HEK293 cells (50 mM Tris pH 8.0, 150 mM NaCl, 1 % Triton X-100); immunoprecipitation with rabbit polyclonal anti-FLAG and protein A-agarose; blot with anti-myc or anti-Orai2

| binding [1] | binding [2] | binding [3] | Substance |
| --- | --- | --- | --- |
| no binding | binds | – | FLAG epitope-tagged KCa3.1 (from UniProt O15554 1-427) |
| – | – | binds | c-Myc epitope-tagged Orai1 (from UniProt Q96D31 1-301) |
| – | – | no binding | c-Myc epitope-tagged Orai2 (from UniProt Q96SN7 1-254) |
